This is one part of the list. Most values lie at the level of the controls, where differences are scatter.

Sequences of proteins named here, by UniProt entry; tags and fusion partners are left off. A change or cut given only in a name is not applied to a line headed by its entry.
UniProt P14407: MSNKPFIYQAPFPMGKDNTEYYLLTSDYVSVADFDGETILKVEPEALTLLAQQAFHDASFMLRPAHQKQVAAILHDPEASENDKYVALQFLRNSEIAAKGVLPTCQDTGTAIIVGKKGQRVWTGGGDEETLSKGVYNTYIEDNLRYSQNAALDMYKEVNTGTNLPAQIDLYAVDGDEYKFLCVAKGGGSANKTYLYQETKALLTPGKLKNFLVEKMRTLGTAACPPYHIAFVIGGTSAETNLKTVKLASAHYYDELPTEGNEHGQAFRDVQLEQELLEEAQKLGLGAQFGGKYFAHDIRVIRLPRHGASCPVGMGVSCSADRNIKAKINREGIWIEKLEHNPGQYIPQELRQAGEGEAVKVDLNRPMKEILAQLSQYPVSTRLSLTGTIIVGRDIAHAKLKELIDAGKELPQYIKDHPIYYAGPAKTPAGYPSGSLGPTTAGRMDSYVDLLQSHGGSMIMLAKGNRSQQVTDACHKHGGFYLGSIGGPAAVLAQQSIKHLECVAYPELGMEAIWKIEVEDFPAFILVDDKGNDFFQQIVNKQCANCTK
UniProt P16691: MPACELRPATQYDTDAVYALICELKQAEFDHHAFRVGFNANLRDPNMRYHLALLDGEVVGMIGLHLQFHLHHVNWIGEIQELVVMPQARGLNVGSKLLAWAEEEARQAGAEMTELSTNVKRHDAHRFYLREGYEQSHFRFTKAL
UniProt P15082: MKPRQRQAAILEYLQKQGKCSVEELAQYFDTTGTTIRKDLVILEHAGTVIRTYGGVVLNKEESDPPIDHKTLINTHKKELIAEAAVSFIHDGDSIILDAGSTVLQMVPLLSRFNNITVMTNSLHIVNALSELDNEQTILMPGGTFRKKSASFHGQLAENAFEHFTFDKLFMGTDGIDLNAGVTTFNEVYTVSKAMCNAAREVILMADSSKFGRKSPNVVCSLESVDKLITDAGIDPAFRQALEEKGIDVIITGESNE
UniProt P18310: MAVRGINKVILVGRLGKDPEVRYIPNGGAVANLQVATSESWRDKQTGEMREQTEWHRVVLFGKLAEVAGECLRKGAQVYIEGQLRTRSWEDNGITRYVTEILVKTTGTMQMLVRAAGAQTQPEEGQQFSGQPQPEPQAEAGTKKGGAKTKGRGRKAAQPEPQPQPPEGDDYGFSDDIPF
UniProt P23898: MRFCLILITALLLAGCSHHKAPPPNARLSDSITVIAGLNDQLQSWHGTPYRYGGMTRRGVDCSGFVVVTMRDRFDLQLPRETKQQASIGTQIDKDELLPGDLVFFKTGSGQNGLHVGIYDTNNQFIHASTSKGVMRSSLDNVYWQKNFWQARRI
UniProt P10100: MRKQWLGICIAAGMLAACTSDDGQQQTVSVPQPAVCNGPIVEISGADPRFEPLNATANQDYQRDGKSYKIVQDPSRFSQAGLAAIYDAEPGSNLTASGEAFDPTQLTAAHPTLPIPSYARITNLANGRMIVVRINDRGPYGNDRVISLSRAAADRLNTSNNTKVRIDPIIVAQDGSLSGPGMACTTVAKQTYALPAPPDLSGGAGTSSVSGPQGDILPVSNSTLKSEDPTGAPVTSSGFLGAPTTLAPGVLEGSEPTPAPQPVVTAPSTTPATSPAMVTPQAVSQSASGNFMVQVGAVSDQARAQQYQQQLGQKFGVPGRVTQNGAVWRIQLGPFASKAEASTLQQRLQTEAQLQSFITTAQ
UniProt P18811: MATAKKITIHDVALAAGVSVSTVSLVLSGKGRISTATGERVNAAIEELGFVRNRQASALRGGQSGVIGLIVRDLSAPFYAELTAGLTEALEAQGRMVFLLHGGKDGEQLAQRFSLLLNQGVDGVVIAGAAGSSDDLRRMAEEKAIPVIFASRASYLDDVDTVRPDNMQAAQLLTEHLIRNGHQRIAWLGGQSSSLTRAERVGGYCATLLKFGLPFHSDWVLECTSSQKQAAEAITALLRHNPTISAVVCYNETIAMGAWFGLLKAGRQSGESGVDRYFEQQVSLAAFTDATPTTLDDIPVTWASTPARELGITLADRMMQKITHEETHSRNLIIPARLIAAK
UniProt P10378: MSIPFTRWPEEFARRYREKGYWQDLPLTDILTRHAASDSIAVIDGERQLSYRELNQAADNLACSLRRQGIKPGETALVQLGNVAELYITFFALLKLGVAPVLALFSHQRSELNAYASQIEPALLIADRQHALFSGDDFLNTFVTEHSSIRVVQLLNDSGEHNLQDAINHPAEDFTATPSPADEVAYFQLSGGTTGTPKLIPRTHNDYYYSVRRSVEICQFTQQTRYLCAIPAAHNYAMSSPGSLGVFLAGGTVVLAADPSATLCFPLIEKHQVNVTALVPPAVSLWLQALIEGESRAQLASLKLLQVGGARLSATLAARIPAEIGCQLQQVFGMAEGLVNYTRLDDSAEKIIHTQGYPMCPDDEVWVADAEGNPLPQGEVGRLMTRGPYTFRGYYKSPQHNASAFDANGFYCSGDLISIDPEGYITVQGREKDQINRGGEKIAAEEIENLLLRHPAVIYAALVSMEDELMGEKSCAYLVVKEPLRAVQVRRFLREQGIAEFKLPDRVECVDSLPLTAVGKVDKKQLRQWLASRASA
UniProt P24175: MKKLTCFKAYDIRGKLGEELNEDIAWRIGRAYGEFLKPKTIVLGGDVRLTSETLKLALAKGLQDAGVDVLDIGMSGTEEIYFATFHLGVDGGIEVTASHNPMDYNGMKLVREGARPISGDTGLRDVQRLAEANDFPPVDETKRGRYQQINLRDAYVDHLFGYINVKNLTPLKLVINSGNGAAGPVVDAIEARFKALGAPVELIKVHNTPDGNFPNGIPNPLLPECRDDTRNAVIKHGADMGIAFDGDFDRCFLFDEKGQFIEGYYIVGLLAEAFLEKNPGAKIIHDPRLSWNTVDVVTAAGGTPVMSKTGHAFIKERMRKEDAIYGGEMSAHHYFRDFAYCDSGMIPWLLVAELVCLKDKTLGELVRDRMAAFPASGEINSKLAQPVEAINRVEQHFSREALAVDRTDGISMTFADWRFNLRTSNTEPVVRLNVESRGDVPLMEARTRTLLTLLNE
UniProt P15043: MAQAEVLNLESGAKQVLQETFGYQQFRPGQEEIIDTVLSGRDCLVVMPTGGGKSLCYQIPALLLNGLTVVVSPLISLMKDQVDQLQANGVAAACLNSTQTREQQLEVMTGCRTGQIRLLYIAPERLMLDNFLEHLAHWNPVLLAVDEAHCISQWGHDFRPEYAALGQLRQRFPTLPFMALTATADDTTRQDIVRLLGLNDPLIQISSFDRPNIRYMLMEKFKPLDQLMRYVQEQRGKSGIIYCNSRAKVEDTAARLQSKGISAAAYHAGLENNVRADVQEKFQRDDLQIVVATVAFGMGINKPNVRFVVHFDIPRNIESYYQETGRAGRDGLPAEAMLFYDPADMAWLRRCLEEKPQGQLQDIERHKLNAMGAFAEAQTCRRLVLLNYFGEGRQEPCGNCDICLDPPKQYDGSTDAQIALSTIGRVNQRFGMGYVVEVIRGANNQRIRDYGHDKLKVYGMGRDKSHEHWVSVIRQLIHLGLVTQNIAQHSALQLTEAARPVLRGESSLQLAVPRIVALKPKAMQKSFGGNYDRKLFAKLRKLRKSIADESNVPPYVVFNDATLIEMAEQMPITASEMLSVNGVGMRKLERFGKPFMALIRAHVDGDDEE
UniProt P13857: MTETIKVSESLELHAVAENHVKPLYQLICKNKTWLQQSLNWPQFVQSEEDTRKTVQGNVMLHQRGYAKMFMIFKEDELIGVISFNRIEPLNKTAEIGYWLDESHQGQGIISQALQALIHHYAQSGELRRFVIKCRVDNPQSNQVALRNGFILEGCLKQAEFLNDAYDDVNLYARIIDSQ
UniProt P23847: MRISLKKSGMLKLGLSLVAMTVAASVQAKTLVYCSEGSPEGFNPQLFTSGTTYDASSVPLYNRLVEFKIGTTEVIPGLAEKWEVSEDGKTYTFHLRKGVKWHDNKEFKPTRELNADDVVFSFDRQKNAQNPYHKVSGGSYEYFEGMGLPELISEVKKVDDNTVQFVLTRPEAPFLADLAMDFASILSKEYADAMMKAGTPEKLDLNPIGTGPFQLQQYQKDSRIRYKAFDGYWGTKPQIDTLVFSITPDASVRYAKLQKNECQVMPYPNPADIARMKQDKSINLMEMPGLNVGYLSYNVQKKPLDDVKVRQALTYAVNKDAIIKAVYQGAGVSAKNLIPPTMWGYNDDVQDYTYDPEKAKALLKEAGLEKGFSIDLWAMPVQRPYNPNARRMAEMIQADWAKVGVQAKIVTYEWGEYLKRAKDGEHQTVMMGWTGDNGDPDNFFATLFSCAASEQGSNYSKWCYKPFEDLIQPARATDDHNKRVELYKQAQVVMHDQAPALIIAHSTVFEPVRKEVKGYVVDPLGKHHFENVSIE
UniProt P22524: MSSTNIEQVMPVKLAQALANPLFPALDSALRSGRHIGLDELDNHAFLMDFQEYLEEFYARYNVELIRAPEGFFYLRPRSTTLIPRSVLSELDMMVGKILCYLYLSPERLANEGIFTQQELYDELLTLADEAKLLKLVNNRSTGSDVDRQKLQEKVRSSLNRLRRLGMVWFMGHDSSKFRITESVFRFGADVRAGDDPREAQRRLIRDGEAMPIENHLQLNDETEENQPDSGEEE
UniProt P0AGH1: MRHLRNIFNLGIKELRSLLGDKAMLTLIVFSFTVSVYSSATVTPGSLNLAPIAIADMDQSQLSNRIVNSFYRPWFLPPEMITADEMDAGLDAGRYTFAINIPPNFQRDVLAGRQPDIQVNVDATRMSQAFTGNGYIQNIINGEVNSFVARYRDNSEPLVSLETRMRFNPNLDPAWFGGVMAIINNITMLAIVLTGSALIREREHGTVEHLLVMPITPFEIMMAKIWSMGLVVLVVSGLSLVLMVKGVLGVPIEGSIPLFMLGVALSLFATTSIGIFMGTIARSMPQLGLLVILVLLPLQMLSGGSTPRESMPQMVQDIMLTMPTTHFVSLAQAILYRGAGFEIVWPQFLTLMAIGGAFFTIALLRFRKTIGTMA
UniProt P21367: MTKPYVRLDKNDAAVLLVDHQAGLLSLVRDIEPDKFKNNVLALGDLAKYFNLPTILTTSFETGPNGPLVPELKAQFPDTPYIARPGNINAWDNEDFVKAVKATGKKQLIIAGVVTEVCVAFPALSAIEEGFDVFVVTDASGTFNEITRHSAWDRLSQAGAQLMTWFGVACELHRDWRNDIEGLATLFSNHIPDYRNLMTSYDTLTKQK
UniProt P13016: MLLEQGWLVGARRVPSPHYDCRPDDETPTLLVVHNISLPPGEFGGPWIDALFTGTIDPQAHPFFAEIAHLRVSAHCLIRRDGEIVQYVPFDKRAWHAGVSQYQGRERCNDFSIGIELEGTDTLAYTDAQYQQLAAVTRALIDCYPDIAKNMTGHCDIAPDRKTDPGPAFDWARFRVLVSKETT
UniProt P16095: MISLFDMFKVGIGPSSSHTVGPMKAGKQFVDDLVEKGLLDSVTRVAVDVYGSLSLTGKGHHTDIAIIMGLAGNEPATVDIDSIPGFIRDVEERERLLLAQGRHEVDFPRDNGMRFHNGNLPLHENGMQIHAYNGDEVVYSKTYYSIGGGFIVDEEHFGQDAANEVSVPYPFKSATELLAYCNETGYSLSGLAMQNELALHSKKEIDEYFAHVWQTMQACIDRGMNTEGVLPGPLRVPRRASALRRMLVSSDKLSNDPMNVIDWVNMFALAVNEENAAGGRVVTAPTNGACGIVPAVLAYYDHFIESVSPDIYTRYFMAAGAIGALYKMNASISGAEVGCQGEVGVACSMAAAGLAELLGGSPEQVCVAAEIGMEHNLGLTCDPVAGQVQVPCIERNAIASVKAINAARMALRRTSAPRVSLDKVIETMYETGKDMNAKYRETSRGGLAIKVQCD
UniProt P14375: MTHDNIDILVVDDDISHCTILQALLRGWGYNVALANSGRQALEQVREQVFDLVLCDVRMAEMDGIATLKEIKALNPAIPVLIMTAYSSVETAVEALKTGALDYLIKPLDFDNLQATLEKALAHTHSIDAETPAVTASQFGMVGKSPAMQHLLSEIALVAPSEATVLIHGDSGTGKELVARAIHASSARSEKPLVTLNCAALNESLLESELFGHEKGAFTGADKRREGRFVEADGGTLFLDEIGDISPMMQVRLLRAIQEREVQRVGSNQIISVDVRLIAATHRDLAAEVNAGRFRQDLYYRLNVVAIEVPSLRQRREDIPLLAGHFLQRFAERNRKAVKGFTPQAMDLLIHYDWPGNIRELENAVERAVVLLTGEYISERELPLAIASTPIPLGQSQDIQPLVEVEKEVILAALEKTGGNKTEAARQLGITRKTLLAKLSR
UniProt P11664: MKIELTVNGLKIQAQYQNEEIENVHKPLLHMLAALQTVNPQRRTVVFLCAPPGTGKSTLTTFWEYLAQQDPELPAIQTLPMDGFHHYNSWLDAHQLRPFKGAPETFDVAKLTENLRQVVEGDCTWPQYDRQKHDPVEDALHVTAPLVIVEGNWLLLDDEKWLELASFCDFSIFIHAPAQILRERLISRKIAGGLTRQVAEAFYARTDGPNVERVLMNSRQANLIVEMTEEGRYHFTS
UniProt P21361: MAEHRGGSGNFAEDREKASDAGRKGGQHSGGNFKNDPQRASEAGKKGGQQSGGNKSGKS

Compound in the assay: CC1(C)S[C@@H]2[C@H](NC(=O)[C@H](N)c3ccccc3)C(=O)N2[C@H]1C(=O)O [ampicillin]
The assay can be described thus: log2 fold change of tryptic peptide abundance, ligand vs vehicle (limited proteolysis) (log2 ratio); higher = more trypsin-susceptible (destabilized). The following applies: ligand concentration: 10 uM; sample: E. coli crude lysate.
As for “UniProt P14407 (peptide sequence: LKELIDAGK, peptide start residue: 400)”, the log2 fold change was -0.24. On to “UniProt P16691 (peptide sequence: EGYEQSHFR, peptide start residue: 131)”, for which the log2 fold change is -0.073.

Consider “UniProt P15082 (peptide sequence: EESDPPIDHK, peptide start residue: 61)”, for which the log2 fold change is 0.166.

On to “UniProt P18310 (peptide sequence: LGKDPEVR, peptide start residue: 15)”, for which the log2 fold change is -0.312. For “UniProt P23898 (peptide sequence: SSLDNVYWQK, peptide start residue: 137)”, the log2 fold change worked out at 0.236.

Consider “UniProt P19319 (peptide sequence: GETFADGHGQVMHSNR, peptide start residue: 15)”, for which the log2 fold change was 0.398. Take “UniProt P20966 (peptide sequence: AQTATTESK, peptide start residue: 212)”: the log2 fold change worked out at 0.346. The result for “UniProt P10100 (peptide sequence: AQQYQQQLGQK, peptide start residue: 304)” reads -0.141.

Take “UniProt P23256 (peptide sequence: GDWALLTSGSK, peptide start residue: 223)”: the log2 fold change stood at 0.446.

Turning to “UniProt P18811 (peptide sequence: MVFLLHGGKDGEQLAQR, peptide start residue: 96)”, the log2 fold change was -0.133. As to “UniProt P10378 (peptide sequence: SCAYLVVKEPLR, peptide start residue: 474)”, the log2 fold change is -0.0728. Consider “UniProt P24175 (peptide sequence: LAQPVEAINRVEQHFSR, peptide start residue: 383)”, for which the log2 fold change is -0.125. The result for “UniProt P15043 (peptide sequence: KLERFGK, peptide start residue: 587)” reads -1.14; that for “UniProt P13857 (peptide sequence: NGFILEGCLK, peptide start residue: 148)”, -0.0994. The result for “UniProt P23847 (peptide sequence: QALTYAVNKDAIIK, peptide start residue: 311)” reads -0.257; that for “UniProt P15006 (peptide sequence: METDITIR, peptide start residue: 241)”, -0.141. The figure for “UniProt P17169 (peptide sequence: LKGLDASIEHDIVHGLQALPSR, peptide start residue: 423)” is 0.815.

As for “UniProt P21829 (peptide sequence: FALTHDDLPQLQHFGK, peptide start residue: 158)”, the log2 fold change worked out at 0.0709.

“UniProt P20099 (peptide sequence: KGFLASPENPQGIR, peptide start residue: 64)”: the log2 fold change was -0.491. The figure for “UniProt P15877 (peptide sequence: TNESFQHVTCR, peptide start residue: 256)” is -0.6; for “UniProt P22524 (peptide sequence: APEGFFYLRPR, peptide start residue: 68)” it is -0.214. The figure for “UniProt P13000 (peptide sequence: NSDALALQR, peptide start residue: 53)” is -0.0808; for “UniProt P16528 (peptide sequence: GYSFDDEEHALGLR, peptide start residue: 208)” it is -0.429.

Take “UniProt P0AGH1 (peptide sequence: YRDNSEPLVSLETR, peptide start residue: 151)”: the log2 fold change came to 0.111. The figure for “UniProt P21367 (peptide sequence: AQFPDTPYIAR, peptide start residue: 74)” is -0.324; for “UniProt P13016 (peptide sequence: KTDPGPAFDWAR, peptide start residue: 162)” it is -0.335; for “UniProt P16095 (peptide sequence: ETSRGGLAIKVQCD, peptide start residue: 441)” it is -0.356. The result for “UniProt P14375 (peptide sequence: VGSNQIISVDVR, peptide start residue: 265)” reads 0.156; that for “UniProt P11349 (peptide sequence: CIGCHTCSVTCKNVWTSR, peptide start residue: 16)”, -0.592. The figure for “UniProt P11664 (peptide sequence: TVVFLCAPPGTGK, peptide start residue: 44)” is -0.215.

As for “UniProt P15373 (peptide sequence: TRPFNIQQGK, peptide start residue: 84)”, the log2 fold change was -0.512.

As for “UniProt P21361 (peptide sequence: KGGQHSGGNFK, peptide start residue: 24)”, the log2 fold change was -0.166. The result for “UniProt P24178 (peptide sequence: NCDTIKK, peptide start residue: 9)” reads 0.268.
